Percent effect of library compounds

Chains of the proteins cited; added tags and fusions are not shown. Residues count along the entry.
UniProt A4I591, 1-473: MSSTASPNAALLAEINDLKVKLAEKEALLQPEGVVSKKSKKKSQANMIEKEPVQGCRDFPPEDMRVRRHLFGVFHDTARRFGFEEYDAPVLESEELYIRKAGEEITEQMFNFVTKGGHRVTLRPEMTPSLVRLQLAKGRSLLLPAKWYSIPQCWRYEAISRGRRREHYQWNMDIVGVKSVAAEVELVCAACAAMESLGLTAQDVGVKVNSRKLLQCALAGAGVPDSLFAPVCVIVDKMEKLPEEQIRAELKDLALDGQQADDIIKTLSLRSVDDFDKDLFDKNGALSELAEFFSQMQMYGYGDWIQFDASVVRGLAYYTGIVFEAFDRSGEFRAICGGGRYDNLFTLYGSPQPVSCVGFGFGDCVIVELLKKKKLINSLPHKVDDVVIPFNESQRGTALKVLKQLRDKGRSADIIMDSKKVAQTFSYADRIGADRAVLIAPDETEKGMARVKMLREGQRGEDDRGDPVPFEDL
UniProt P9WFT3, whole entry: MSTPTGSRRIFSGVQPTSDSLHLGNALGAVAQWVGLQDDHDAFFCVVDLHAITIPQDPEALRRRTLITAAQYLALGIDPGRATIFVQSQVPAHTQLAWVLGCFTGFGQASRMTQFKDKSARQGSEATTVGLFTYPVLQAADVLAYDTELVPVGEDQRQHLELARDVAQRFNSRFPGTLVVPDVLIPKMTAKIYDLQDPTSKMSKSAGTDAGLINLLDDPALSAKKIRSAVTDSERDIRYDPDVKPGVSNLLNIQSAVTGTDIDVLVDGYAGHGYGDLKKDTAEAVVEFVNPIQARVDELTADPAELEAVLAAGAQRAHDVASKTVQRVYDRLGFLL
UniProt P9WNZ1, whole entry: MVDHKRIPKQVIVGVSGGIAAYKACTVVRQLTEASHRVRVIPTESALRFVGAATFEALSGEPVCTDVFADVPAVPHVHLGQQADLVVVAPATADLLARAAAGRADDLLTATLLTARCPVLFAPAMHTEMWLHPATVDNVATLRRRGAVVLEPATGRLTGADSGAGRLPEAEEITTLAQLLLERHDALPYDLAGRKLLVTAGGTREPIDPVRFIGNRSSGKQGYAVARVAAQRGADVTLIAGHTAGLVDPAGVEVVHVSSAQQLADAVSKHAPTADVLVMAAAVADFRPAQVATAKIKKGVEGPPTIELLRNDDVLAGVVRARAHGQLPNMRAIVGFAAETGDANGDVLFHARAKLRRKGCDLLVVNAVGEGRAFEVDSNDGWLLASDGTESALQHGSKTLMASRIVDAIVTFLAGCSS

Each number is a percent effect as filed.
The record does not define 0% and 100%; most values in the screen are far below 50% and negative numbers occur (in some assays of this library far below -100).
This is an unselected part of the compounds tested.
A dash means the value is not listed here; it may have been measured.

A: 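Enzyme assay of histidyl-tRNA synthetase; the read-out is not stated. Target: Histidine-tRNA ligase, Leishmania infantum (UniProt A4I591). Compounds at 30 µM. Direction is inferred from retests: higher values go with stronger inhibition. The assay is labelled LdHisRS but filed under L. infantum. About 69,000 compounds were tested under these conditions; 0.6% (about 410) showed 50% or more at least once.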
B: 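Tryptophan-tRNA ligase, Mycobacterium tuberculosis (UniProt P9WFT3). Enzyme assay of tryptophanyl-tRNA synthetase; the read-out is not stated. Compounds at 10 µM. Higher most likely means stronger inhibition; the record gives no direction and few retests gave an IC50. Size under these conditions: about 65,000 compounds, about 64 of them at 50% or above in at least one test.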
C: 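Coenzyme A biosynthesis protein CoaBC, Mycobacterium tuberculosis (UniProt P9WNZ1). Enzyme assay of CoaBC with a phosphate dye (Biomol Green) read at 650 nm. Tested at 30 µM. Higher reads as stronger inhibition, judged from the few compounds that gave an IC50. Most strong results did not repeat in a second test. About 67,000 compounds were tested under these conditions; 0.06% (about 40) showed 50% or more at least once.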

structure,A,B,C
O=c1[nH]nc(SCC2CCCO2)n1C1CC1 (centres undefined),9.677%,-3.122%,-0.6046%
CSc1ccc(C(=O)N2C[C@H]3CC[C@@H]2CN(Cc2ccccc2)C3)cc1,33.33%,2.113%,-22.43%
N#Cc1ccccc1N1CCCN(C(=O)CCn2cccn2)CC1,-19.1%,-0.07868%,-1.542%
COc1cccc(-c2noc(CN3CCOCC3C)n2)c1 (centres undefined),8.929%,-8.55%,1.535%
CCC(CC)CN(C)Cc1nc(-c2ccccc2NS(C)(=O)=O)oc1C,11.43%,-0.7224%,-
CCn1cc(C(=O)N2CCCC(c3[nH]ncc3S(C)(=O)=O)C2)cn1 (centres undefined),17.14%,-3.25%,-0.9162%
CSC(C)(C)CNC(=O)NCc1cccc(-n2ccnc2)c1,18.42%,-0.6135%,1.266%
CN(C)CC1CN(Cc2coc(-c3cccc(F)c3)n2)CCO1 (centres undefined),-6.087%,2.556%,5.216%
Cc1nccn1C1CCCN(C(=O)c2cccc3c2OCO3)C1 (centres undefined),14.04%,-2.603%,6.584%
CCOc1cccc(NS(=O)(=O)c2cc(C(=O)O)cs2)c1,15.09%,0.1649%,12.84%
CN1CCO[C@H]2CN(S(=O)(=O)c3ccc(C#N)cc3)C[C@H]21,11.11%,5.289%,0%
CCN1C[C@@H]2CN(C(=O)c3ccsc3)C[C@@H]2C1=O,-28.57%,2.604%,1.303%
CCN(CC)c1ccc(CNC(=O)C2(C)CCOCC2)cc1F,0%,5.982%,-2.686%
CNC(=O)COc1cccc(CNCc2c(C)noc2C)c1,8%,-0.1505%,-1.707%
c1ccc(-c2nnc3sc(CCN4CCCCCC4)nn23)cc1,13.04%,5.376%,2.179%
OC(CN1CC(n2cccn2)C1)c1ccc2c(c1)OCCO2 (centres undefined),20.97%,0.3549%,6.765%
CC(C)CN1CCC2(CCN(Cc3ccc(F)cc3)CC2)C1=O,23.08%,-5.087%,5.019%
CCN(CC)C1COc2ccc(Br)cc2C1=O (centres undefined),6.186%,-,0.8589%
CCCNC(=O)Nc1ccn(CCCOC)n1,8.571%,3.804%,1.538%
Cn1cc(CN2CC[C@H]3O[C@H](C(=O)NCc4ccco4)CC[C@H]32)cn1,9.434%,1.784%,3.173%
Cc1cc(Cl)c2c(c1)C1(NC(=O)c3cccnc3N1)C(=O)N2 (centres undefined),5.128%,-0.838%,5.433%
CCCc1nc(C)c(CNc2nc(C)nc3oc(C)nc23)s1,25.64%,-0.805%,1.6%
CN1CCN(c2ccc(NCc3ccc([S+](C)[O-])cc3)cn2)CC1 (centres undefined),22.58%,4.438%,-1.827%
Cc1oc(-c2ccco2)nc1CC(=O)N1CCN(CC(C)(C)O)CC1,10.67%,-1.016%,4.872%
CCCOc1cc(CNC(=O)Nc2cccc(C(C)=O)c2)ccn1,14.51%,-2.147%,4.968%
CCC(CNC(=O)c1ccccc1Br)N1CCc2ccccc2C1 (centres undefined),28.77%,-2.557%,-17.63%
CCc1nnc2n1CCN(C(=O)c1ccccc1OCC1CC1)C2,10.92%,0.1833%,-1.463%
Cc1cc(OCCC(=O)NCc2ccc(F)cc2)nnc1C,18.75%,-0.6517%,2.893%
O=C(CCc1nccs1)N1CCCC(n2ccnc2)C1 (centres undefined),9.565%,-3.067%,4.707%
CCOCC1CN(Cc2ccoc2)Cc2ncn(CC3CC3)c21 (centres undefined),5.769%,-0.9381%,-85.51%
COc1ccc2c(OCC(=O)NCC(F)(F)F)ccnc2c1,18.07%,1.36%,8.734%
CC(C#N)CSc1ccccc1NCC(=O)NCc1ccccc1 (centres undefined),9.615%,0.784%,12.58%
Nc1nccnc1CC1CCCN(Cc2cccc3[nH]ccc23)C1 (centres undefined),19.72%,-6.726%,6.176%
CC(=O)N1C[C@H](NS(=O)(=O)N2CCOCC2)[C@@H](c2ccc(C)o2)C1,3.333%,-1.104%,3.64%
Cc1noc(C)c1C(C)NC(=O)N1CCN(c2cccs2)CC1 (centres undefined),13.33%,-7.67%,4.466%
Cc1ccc(C(=O)NCCCn2cncn2)c(=O)[nH]1,12.9%,-1.282%,-1.72%
Cn1cnc2c1C(COCC1CC1)CN(C(=O)c1cscn1)C2 (centres undefined),20.35%,-3.904%,0.6316%
CC(C)C(=O)NC(Cc1cc(N(C)C)nc(C2CC2)n1)c1ccccc1 (centres undefined),16.11%,-1.257%,5.251%

Some entries from above, unchanged:

structure,A,B,C
CCOCC1CN(Cc2ccoc2)Cc2ncn(CC3CC3)c21 (centres undefined),5.769%,-0.9381%,-85.51%
Cn1cnc2c1C(COCC1CC1)CN(C(=O)c1cscn1)C2 (centres undefined),20.35%,-3.904%,0.6316%
CCc1nnc2n1CCN(C(=O)c1ccccc1OCC1CC1)C2,10.92%,0.1833%,-1.463%

Data taken from ChEMBL document CHEMBL3988442, “University of Dundee, Small-Polar-MMV Screening Library” (2021).